For the assay, the target named is altFUS-FLAG (FLAG-tagged altFUS) (human). In words: affinity purification with mass spectrometry.

From paper doi:10.1101/848580 come the findings set out here.

These are yes or no findings as the source states them, for the method shown. Binding seen in cells or lysates may run through a third protein. Here binding means that the protein was enriched with, or labelled near, the bait; the list need not be complete.

B1: ERLIN2 (protein, UniProt O94905 1-339)
chain: MAQLGAVVAVASSFFCASLFSAVHKIEEGHIGVYYRGGALLTSTSGPGFHLMLPFITSYKSVQTTLQTDEVKNVPCGTSGGVMIYFDRIEVVNFLVPNAVYDIVKNYTADYDKALIFNKIHHELNQFCSVHTLQEVYIELFDQIDENLKLALQQDLTSMAPGLVIQAVRVTKPNIPEAIRRNYELMESEKTKLLIAAQKQKVVEKEAETERKKALIEAEKVAQVAEITYGQKVMEKETEKKISEIEDAAFLAREKAKADAECYTAMKIAEANKLKLTPEYLQLMKYKAIASNSKIYFGKDIPNMFMDSAGSVSKQFEGLADKLSFGLEDEPLETATKEN
As to B1, the binding entry is “binds”.
